Test results reported in PubChem BioAssay (NCATS).
Some of the results follow. The main result of the screen is listed elsewhere. These columns were measured beside it and carry no call. The list favours compounds with an active or inconclusive main result. The note in brackets gives the kind of curve behind each potency; many fits are weak.

Assay: qHTS for identification of novel therapeutic agents for treatment of microphthalmiaassociated transcription factor (MiT) renal cell carcinoma (RCC) (AID 1963991)
Conditions: CellTiter-Glo, 48 h; for z-score: stronger effect = lower value
Outline: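 Three TFE3-fusion RCC cell lines (UOK109, UOK124, UOK145), 500 cells/well, were exposed to the 1912-compound MIPE 4.0 library for 48 hours at 37 C. Viability was read by CellTiter-Glo luminescence, normalised to DMSO (100%) and empty wells (0%), with 11-concentration curve fits.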

[1] = TFE3-RCC UOK109 viability, measured here: UOK109 Z-AUC
[2] = TFE3-RCC viability, measured here: UOK124 Z-AUC
[3] = TFE3-RCC viability, measured here: UOK145 Z-AUC
[4] = TFE3-RCC viability, measured here: UOK145 cell viability
[5] = TFE3-RCC viability, measured here: UOK124 cell viability

| Structure (SMILES) | z-score [1] | z-score [2] | z-score [3] | AC50 [4] | AC50 [5] |
| --- | --- | --- | --- | --- | --- |
| O=C(NCC1CCOCC1)c1cnc(Nc2ccc(Cl)cc2Cl)nc1C(F)(F)F | 0.22 | 0.933 | -0.366 | 10.5 µM [falling, full curve] |  |
| CC(C)[C@H]1C(=O)N[C@H](CO)Cc2c[nH]c3cccc(c23)N1C | 0.0277 | -0.675 | -0.46 |  | 0.235 µM [falling, full curve] |
| CC(=Cc1csc(C)n1)[C@@H]1C[C@H]2O[C@]2(C)CCC[C@H](C)[C@@H](O)[C@@H](C)C(=O)C(C)(C)[C@@H](O)CC(=O)O1 | -2.63 | -0.721 | -1.94 | 0.264 µM [rising, full curve, poor fit] |  |
| COC(=O)C1=CCCN(C)C1 | 0.495 | 0.569 | 0.506 | 1.87 µM [falling, partial curve, poor fit] |  |
| C=CCON=C(C[C@H]1O[C@@H]2O[C@]3(C)CC[C@@H]4[C@H](C)CC[C@@H]([C@H]1C)[C@@]24OO3)[C@H]1O[C@@H]2O[C@]3(C)CC[C@H]4[C@H](C)CC[C@@H]([C@@H]1C)[C@@]24OO3 | -0.0143 | -0.113 | -0.0446 | 1.66 µM [falling, full curve] | 0.469 µM [falling, full curve] |
| CCOC(=O)c1c(C(C#N)=CN)c2ccc(Cl)c(Cl)c2n1C | 0.508 | 0.0935 | 0.202 | 37.2 µM [falling, partial curve, poor fit] | 37.2 µM [falling, single point] |
